Patent US20100266575A1
No constants are given. Whether binding was seen depends on the method and setting. Some binding calls cover weakened binding; strength is not graded here.

The chains behind the UniProt entries cited, without tags or fusion partners. Where a name states a change or a piece, a line headed by the entry shows the natural chain unless it says otherwise.
UniProt P17948: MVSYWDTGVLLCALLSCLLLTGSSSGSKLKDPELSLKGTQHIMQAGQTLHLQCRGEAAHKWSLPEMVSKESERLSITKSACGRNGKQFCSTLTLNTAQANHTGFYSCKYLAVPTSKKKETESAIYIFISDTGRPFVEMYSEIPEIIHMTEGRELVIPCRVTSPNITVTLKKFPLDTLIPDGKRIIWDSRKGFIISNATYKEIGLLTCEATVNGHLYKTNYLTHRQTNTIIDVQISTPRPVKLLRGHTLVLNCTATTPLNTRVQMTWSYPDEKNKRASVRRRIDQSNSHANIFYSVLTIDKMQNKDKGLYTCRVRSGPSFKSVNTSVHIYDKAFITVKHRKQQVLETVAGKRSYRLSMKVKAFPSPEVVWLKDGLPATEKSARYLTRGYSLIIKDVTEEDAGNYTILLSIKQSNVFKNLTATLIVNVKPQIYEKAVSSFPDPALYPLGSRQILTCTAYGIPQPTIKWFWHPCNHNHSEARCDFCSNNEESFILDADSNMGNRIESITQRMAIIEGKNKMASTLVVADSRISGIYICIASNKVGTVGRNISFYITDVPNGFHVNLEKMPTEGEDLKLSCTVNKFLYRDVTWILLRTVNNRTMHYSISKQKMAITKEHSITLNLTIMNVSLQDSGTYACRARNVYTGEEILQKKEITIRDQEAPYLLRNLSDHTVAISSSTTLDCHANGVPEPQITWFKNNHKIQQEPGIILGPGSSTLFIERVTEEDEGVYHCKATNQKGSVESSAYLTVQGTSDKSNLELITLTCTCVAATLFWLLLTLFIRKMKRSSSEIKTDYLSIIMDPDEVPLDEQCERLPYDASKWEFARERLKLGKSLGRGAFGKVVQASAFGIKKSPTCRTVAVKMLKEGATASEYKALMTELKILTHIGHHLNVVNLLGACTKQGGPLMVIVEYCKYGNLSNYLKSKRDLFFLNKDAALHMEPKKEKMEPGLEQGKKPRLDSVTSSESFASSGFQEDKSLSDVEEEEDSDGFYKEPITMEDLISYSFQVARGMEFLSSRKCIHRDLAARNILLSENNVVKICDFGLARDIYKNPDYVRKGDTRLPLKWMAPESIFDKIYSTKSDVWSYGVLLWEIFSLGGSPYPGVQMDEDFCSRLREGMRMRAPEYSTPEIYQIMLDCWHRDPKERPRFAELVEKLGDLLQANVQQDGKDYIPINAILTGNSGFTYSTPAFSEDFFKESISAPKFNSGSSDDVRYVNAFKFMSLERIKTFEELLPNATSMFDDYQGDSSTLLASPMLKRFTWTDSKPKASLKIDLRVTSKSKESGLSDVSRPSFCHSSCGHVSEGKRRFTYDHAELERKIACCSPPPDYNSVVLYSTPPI

Assays:
[1] = molecular target: sFlt-1 domains 1-6:Fc chimera from Sf21 cells using baculovirus (human) (UniProt P17948); experiment: sandwich CMIA on … (Example 7): sFlt-1 antigen captured by a mAb on microparticles, PlGF-acridinium as conjugate; positive = RLU > 400,000 at 1,000 pg/mL calibrator
[2] = molecular target: sFlt-1 (R&D Systems; construct not stated) (human) (UniProt P17948); experiment: PlGF added to aliquots of a fixed amount of sFlt-1 before … sandwich immunoassay

binding [1]: binds | binding [2]: binds
B1: placental growth factor (PlGF) (ligand, UniProt P49763-2 21-149, looked up)
chain: AVPPQQWALSAGNGSSEVEVVPFQEVWGRSYCRALERLVDVVSEYPSEVEHMFSPSCVSLLRCTGCCGDENLHCVPVETANVTMQLLKIRSGDRPSYVELTFSQHVRCECRPLREKMKPERCGDAVPRR
